Results reported in publication PMC2675063.
Results are given in words; binding and its absence hold for the method and conditions named. In cells and extracts the contact can be indirect.

Sequences of proteins named here, by UniProt entry; tags and fusion partners are left off.
UniProt Q14145: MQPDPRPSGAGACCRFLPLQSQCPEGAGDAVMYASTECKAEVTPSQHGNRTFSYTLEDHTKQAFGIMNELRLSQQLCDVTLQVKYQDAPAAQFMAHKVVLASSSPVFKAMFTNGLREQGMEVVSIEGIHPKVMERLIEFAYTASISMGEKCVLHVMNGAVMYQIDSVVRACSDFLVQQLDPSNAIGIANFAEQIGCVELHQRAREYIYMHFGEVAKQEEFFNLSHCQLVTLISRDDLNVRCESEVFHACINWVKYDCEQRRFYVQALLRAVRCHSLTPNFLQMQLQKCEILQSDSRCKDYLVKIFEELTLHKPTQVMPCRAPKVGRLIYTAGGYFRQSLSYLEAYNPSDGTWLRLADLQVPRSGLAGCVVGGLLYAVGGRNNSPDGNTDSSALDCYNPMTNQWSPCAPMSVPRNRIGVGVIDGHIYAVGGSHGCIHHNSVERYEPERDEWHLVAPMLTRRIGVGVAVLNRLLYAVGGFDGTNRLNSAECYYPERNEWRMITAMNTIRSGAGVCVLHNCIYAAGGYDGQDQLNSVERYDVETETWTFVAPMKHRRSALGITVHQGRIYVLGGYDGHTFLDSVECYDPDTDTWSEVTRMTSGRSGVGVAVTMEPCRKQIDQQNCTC

Target: His-tagged Keap1 (Keap1-His) purified from E. coli (UniProt Q14145)
Test: pull-down; Keap1-His purified from E. coli incubated with in vitro transcribed/translated [35S]-labeled proteins; pulled down with nickel beads; SDS-PAGE and autoradiography; only the target purified

B1: full-length ENC1 (E-FL), in vitro translated, [35S]-labeled (protein, UniProt O14682 1-589)
chain: MSVSVHENRKSRASSGSINIYLFHKSSYADSVLTHLNLLRQQRLFTDVLLHAGNRTFPCHRAVLAACSRYFEAMFSGGLKESQDSEVNFDNSIHPEVLELLLDYAYSSRVIINEENAESLLEAGDMLEFQDIRDACAEFLEKNLHPTNCLGMLLLSDAHQCTKLYELSWRMCLSNFQTIRKNEDFLQLPQDMVVQLLSSEELETEDERLVYESAINWISYDLKKRYCYLPELLQTVRLALLPAIYLMENVAMEELITKQRKSKEIVEEAIRCKLKILQNDGVVTSLCARPRKTGHALFLLGGQTFMCDKLYLVDQKAKEIIPKADIPSPRKEFSACAIGCKVYITGGRGSENGVSKDVWVYDTLHEEWSKAAPMLVARFGHGSAELKHCLYVVGGHTAATGCLPASPSVSLKQVEHYDPTINKWTMVAPLREGVSNAAVVSAKLKLFAFGGTSVSHDKLPKVQCYDQCENRWTVPATCPQPWRYTAAAVLGNQIFIMGGDTEFSACSAYKFNSETYQWTKVGDVTAKRMSCHAVASGNKLYVVGGYFGIQRCKTLDCYDPTLDVWNSITTVPYSLIPTAFVSTWKHLPS
modifications: [35S]-methionine label
Question: With B1 as the binder, how does the binding read?
Answer: no binding
